Source: PubChem BioAssay AID1159578 (Peter MacCallum Cancer Centre, 2015)

Assay: 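Genome-wide hunt for genes controlling movement of lymphatic endothelial cells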 (primary screen)
Cells: human lymphatic endothelial cells
Knock-down reagent: siRNA pool against human genes, 40 nM
Duration: 48 h after transfection
Detection: 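High-content imaging of dye-stained cells in a scratch assay measures filled wound area and nuclei per well; duplicate means given as ratio to mock and robust z-score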
Reading the numbers: migration robust z-score: higher = faster migration into the scratch; migration relative to mock: higher = more scratch area covered than mock; nuclei per well: higher = more cells in the well
Hit rule: 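Migration changed when robust z exceeds 2 or falls below -2 and mean nuclei number is at least 3300; otherwise not called changed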
Calls: active = migration changed; inactive = no migration change, or too few cells
The whole screen tested about 18,000 reagents; shown is an unselected part. Of all reagents, about 1,030 (5.7%) were called active. 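Inactive calls also include pools with fewer than 3300 nuclei, whose migration was not assessed.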 Raw values vary from plate to plate and are shown uncorrected. A number with no mark means an inactive call.

Target gene,migration robust z-score,migration class with cell-count check,migration relative to mock,"nuclei per well, duplicate mean"
COPE,-0.32,migration z between -2 and 2; enough cells,0.8,5748
KERA,1.36,migration z between -2 and 2; enough cells,1.23,6631
SIPA1L3,-0.79,migration z between -2 and 2; enough cells,0.68,5040
KIAA0319L,1.23,migration z between -2 and 2; enough cells,1.21,5224
PBLD,0.02,migration z between -2 and 2; enough cells,0.89,6142
WDR75,-0.44,migration z between -2 and 2; enough cells,0.77,5588
TSSK4,0.55,migration z between -2 and 2; enough cells,0.91,5602
TMEM71,-2.44 (active),migration z below -2; enough cells,0.25,5058
LINC00477,-0.19,migration z between -2 and 2; enough cells,0.84,7100
HNF1A,-0.96,migration z between -2 and 2; enough cells,0.62,5373
NR2F6,-1.5,migration z between -2 and 2; enough cells,0.52,5098
SORT1,-1.84,migration z between -2 and 2; enough cells,0.45,3504
RAPGEF4,1.44,migration z between -2 and 2; enough cells,1.26,5757
ATP6V1G1,-1.84,migration z between -2 and 2; enough cells,0.45,5668
TMEM190,-0.08,migration z between -2 and 2; enough cells,0.86,6474
ADAM10,0.08,migration z between -2 and 2; enough cells,0.82,5360
LRRK2,-0.08,migration z between -2 and 2; enough cells,0.79,4909
CACNA1A,-1.19,migration z between -2 and 2; enough cells,0.57,5302
HERC1,-0.47,migration z between -2 and 2; enough cells,0.71,4693
GUCA1C,1.12,migration z between -2 and 2; enough cells,1.02,5912
COL4A6,1.1,migration z between -2 and 2; enough cells,1.17,6592
SULT1C3,-1.51,migration z between -2 and 2; enough cells,0.52,6070
FBXL18,-2.38 (active),migration z below -2; enough cells,0.34,5382
PSG1,-0.44,migration z between -2 and 2; enough cells,0.77,5660
CCDC42,-1.74,migration z between -2 and 2; enough cells,0.42,5121
NUDT17,-1.31,migration z between -2 and 2; enough cells,0.54,7219
MKNK2,1.48,migration z between -2 and 2; enough cells,1.09,5756
PDX1,-1.12,migration z between -2 and 2; enough cells,0.59,4808
CD19,-1.43,migration z between -2 and 2; enough cells,0.51,5651
SEL1L,0.24,migration z between -2 and 2; enough cells,0.94,4646
SIDT2,-0.85,migration z between -2 and 2; enough cells,0.66,5418
PPP2R3A,-0.5,migration z between -2 and 2; enough cells,0.71,5090
OR2T34,-1.27,migration z between -2 and 2; enough cells,0.55,5056
CTSK,-0.1,migration z between -2 and 2; enough cells,0.78,5472
ZNF81,-0.24,migration z between -2 and 2; enough cells,0.82,6312
OGFOD3,-1.12,migration z between -2 and 2; enough cells,0.59,4764
KRT35,-1.39,migration z between -2 and 2; enough cells,0.52,4143
BEND4,-2.15 (active),migration z below -2; enough cells,0.34,6390
CSNK1E,-2.21,under 3300 nuclei; migration not judged,0.38,2584
TCF7,0.08,migration z between -2 and 2; enough cells,0.82,5284
CHRM1,-1.12,migration z between -2 and 2; enough cells,0.59,5190
ST6GALNAC1,1.06,migration z between -2 and 2; enough cells,1.01,5827
SLC6A12,-1.74,migration z between -2 and 2; enough cells,0.47,6308
CFAP300,0.39,migration z between -2 and 2; enough cells,0.99,6360
TRH,0.15,migration z between -2 and 2; enough cells,0.93,5394
ACOX3,0.28,migration z between -2 and 2; enough cells,0.86,4958
RFK,-0.36,migration z between -2 and 2; enough cells,0.74,5810
CIB4,-0.08,migration z between -2 and 2; enough cells,0.86,6184
KIZ,-0.5,migration z between -2 and 2; enough cells,0.76,6210
DEFB118,-0.25,migration z between -2 and 2; enough cells,0.82,5954
JAM3,0.52,migration z between -2 and 2; enough cells,1.01,6390
EID2B,-0.78,migration z between -2 and 2; enough cells,0.68,6736
BICC1,0.45,migration z between -2 and 2; enough cells,1.01,6348
SPEN,0.34,migration z between -2 and 2; enough cells,0.87,5358
PMS2,-0.13,migration z between -2 and 2; enough cells,0.78,5529
TMEM176B,-0.72,migration z between -2 and 2; enough cells,0.7,5760
CSNK1A1,0.62,migration z between -2 and 2; enough cells,0.92,4611
